According to patent publication US20150024952A1, “MOLECULAR PROFILING FOR CANCER” (priority 2010, published 2015):
Some results were stated once for a whole list of compounds, not compound by compound.

System: refractory metastatic cancer (patients' tumors)
Test: Pilot clinical study: treatment regimen selected by molecular profiling of patients' tumors (Example 4)
Format: in vivo, human
Conditions: for PFS ratio: patient
[1] = Breast, targets DCK, DHFR: M, Gemcitabine 1,000 mg/m^2 days 1 and 8 every 3 weeks + pemetrexed 500 mg/m^2 days 1 and 8, every 3 weeks
[2] = Malignant mesothelioma, targets MLH1, MLH2: I, RRM2B, RRM1, RRM2, TOP2B: M, Gemcitabine 1,000 mg/m2 days 1 and 8, every 3 weeks + etoposide 50 mg/m^2 3 days every 3 weeks
[3] = Ovary, targets HER2/NEU, ER: I, HER2/NEU: M, Lapatinib 1,250 mg PO days 1-21 + tamoxifen 20 mg PO
[4] = Breast, targets ER: I, ER, TYMS: M, Letrozole 2.5 mg daily + capecitabine 1,250 mg/m^2 BID, 2 weeks on/1 week off
[5] = Colon/rectum, targets MGMT, VEGFA, HIF1A: M, Temozolomide 150 mg/m^2 for 5 days every 4 weeks + sorafenib 400 mg BID

Question: Which PFS ratio [1] does the source give for `Nc1ccn([C@@H]2O[C@H](CO)[C@@H](O)C2(F)F)c(=O)n1` [gemcitabine] here?
Answer: Identified (in patients with PFS ratio ≧1.3)

Question: And the PFS ratio (Breast, targets SPARC: I, DCK: M, NAB paclitaxel 90 mg/m^2 every 3 weeks + gemcitabine 750 mg/m^2 days 1, 8, 15, every 3 weeks)?
Answer: Identified (in patients with PFS ratio ≧1.3)

Question: What about the PFS ratio (GIST (stomach), targets EGFR: I, EGFR, RRM2: M, Gemcitabine 1,000 mg/m^2 days 1, 8, and 15 every 4 weeks + cetuximab 400 mg/m^2 day 1, 250 mg/m^2 every week) of the same molecule?
Answer: Identified (in patients with PFS ratio ≧1.3)

Question: And the PFS ratio [2]?
Answer: Identified (in patients with PFS ratio ≧1.3)

Question: For `CS(=O)(=O)CCNCc1ccc(-c2ccc3ncnc(Nc4ccc(OCc5cccc(F)c5)c(Cl)c4)c3c2)o1` [Lapatinib], which PFS ratio [3] is on record?
Answer: Identified (in patients with PFS ratio ≧1.3)

Question: With `N#Cc1ccc(C(c2ccc(C#N)cc2)n2cncn2)cc1` [letrozole] as the molecule, how does the PFS ratio [4] read?
Answer: Identified (in patients with PFS ratio ≧1.3)

Question: Which PFS ratio [1] does the source give for `Nc1nc2[nH]cc(CCc3ccc(C(=O)N[C@@H](CCC(=O)O)C(=O)O)cc3)c2c(=O)[nH]1` [pemetrexed] here?
Answer: Identified (in patients with PFS ratio ≧1.3)

Question: `C=C1C[C@@H]2[C@H](CC[C@]3(C)C(=O)CC[C@@H]23)[C@@]2(C)C=CC(=O)C=C12` [exemestane] was tested. Which PFS ratio (Breast, targets ESR1, PR: I, ESR1, PR: M, Exemestane 25 mg every day) did it give?
Answer: Identified (in patients with PFS ratio ≧1.3)

Question: With `CC/C(=C(\c1ccccc1)c1ccc(OCCN(C)C)cc1)c1ccccc1` [tamoxifen] as the molecule, how does the PFS ratio [3] read?
Answer: Identified (in patients with PFS ratio ≧1.3)

Question: For `CO[C@@]12[C@H](COC(N)=O)C3=C(C(=O)C(C)=C(N)C3=O)N1C[C@@H]1N[C@@H]12` [Mitomycin], which PFS ratio (Colon/rectum, targets PDGFR, c-KIT: I, PDGFR: KDR, HIF1A, BRCA2: M, Mitomycin 10 mg once every 4-6 weeks + sunitinib 37.5 mg/d, 4 weeks on/2 weeks off) is on record?
Answer: Identified (in patients with PFS ratio ≧1.3)

Question: How did the PFS ratio [4] turn out when `CCCCCOC(=O)Nc1nc(=O)n([C@@H]2O[C@H](C)[C@@H](O)[C@H]2O)cc1F` [capecitabine] was run?
Answer: Identified (in patients with PFS ratio ≧1.3)

Question: Which results are given for `Cn1nnc2c(C(N)=O)ncn2c1=O` [temozolomide]?
Answer: PFS ratio (Colon/rectum, target MGMT, Temozolomide 150 mg/m^2 for 5 days every 4 weeks + bevacizumab 5 mg/kg every 2 weeks): Identified (in patients with PFS ratio ≧1.3); PFS ratio [5]: Identified (in patients with PFS ratio ≧1.3)

Question: For `CNC(=O)c1cc(Oc2ccc(NC(=O)Nc3ccc(Cl)c(C(F)(F)F)c3)cc2)ccn1` [sorafenib], which PFS ratio [5] is on record?
Answer: Identified (in patients with PFS ratio ≧1.3)

Question: What about the PFS ratio (Colon/rectum, targets PDGFR, c-KIT: I, PDGFR, TOP1: M, CPT-11 70 mg/m^2 weekly for 4 weeks on/2 weeks off + sorafenib 400 mg BID) of the same molecule?
Answer: Identified (in patients with PFS ratio ≧1.3)

Question: How did the PFS ratio (Breast, target MSH2, Oxaliplatin 85 mg/m^2 every 2 weeks + fluorouracil (5FU) 1,200 mg/m^2 days 1 and 2, every 2 weeks + trastuzumab 4 mg/kg day 1, 2 mg/kg every week) turn out when `O=c1[nH]cc(F)c(=O)[nH]1` [fluorouracil] was run?
Answer: Identified (in patients with PFS ratio ≧1.3)

Question: `COc1cc([C@@H]2c3cc4c(cc3[C@@H](O[C@@H]3O[C@@H]5CO[C@@H](C)O[C@H]5[C@H](O)[C@H]3O)[C@H]3COC(=O)[C@H]23)OCO4)cc(OC)c1O` [etoposide] was tested. Which PFS ratio [2] did it give?
Answer: Identified (in patients with PFS ratio ≧1.3)

Question: How did the “PFS ratio of the patient on the treatment received based on profiling” value (breast cancer patients among the 18 with PFS ≧1.3) turn out when `COc1cccc2c1C(=O)c1c(O)c3c(c(O)c1C2=O)C[C@@](O)(C(=O)CO)C[C@@H]3O[C@H]1C[C@H](N)[C@H](O)[C@H](C)O1` [doxorubicin] was run?
Answer: ≥ 1.3

Question: And the PFS ratio (Breast, targets TOP2A: I, TOP2A: M, Doxorubicin 50 mg/m^2 every 3 weeks)?
Answer: Identified (in patients with PFS ratio ≧1.3)
